Results published in patent US20050019808A1 (WISCONSIN ALUMNI RESEARCH FOUNDATION, published 2005).
No constants are given. Whether binding was seen depends on the method and setting. Some results given as binding are weak or reduced against the parent protein; the word gives no strength.

Protein sequences, listed by entry. Tags and fused reporters are not part of them. Residues count along the entry.
UniProt Q66765, residues 1045-1194: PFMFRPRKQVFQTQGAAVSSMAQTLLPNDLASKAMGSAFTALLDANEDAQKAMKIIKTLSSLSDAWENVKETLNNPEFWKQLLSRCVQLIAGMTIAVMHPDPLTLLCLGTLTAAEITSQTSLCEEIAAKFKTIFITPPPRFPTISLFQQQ

Molecular target: 2B from infected cells (encephalomyocarditis virus (EMCV-R)) (UniProt Q66765)
Assay: SDS-PAGE and Western, self-association

2B from infected cells (from UniProt Q66765 1045-1194)
binding: binds
